This is one part of the list. The main result of the screen is listed elsewhere. These columns were measured beside it and carry no call. The list favours compounds with an active or inconclusive main result. Words in brackets tell the shape of the fitted curve; partial curves, single points and poor fits give uncertain potencies.
Experiment: qHTS for identification of novel therapeutic agents for treatment of microphthalmiaassociated transcription factor (MiT) renal cell carcinoma (RCC) (AID 1963991)
Settings: CellTiter-Glo, 48 h; for z-score: stronger effect = lower value
Outline: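 Viability of three TFE3-fusion renal carcinoma lines measured by CellTiter-Glo after 48 h treatment with each of 1912 compounds at 11 concentrations. Responses scaled between DMSO (100%) and empty wells (0%) before curve fitting.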

[1] = TFE3-RCC UOK109 viability, measured here: UOK109 Z-AUC
[2] = TFE3-RCC viability, measured here: UOK124 Z-AUC
[3] = TFE3-RCC viability, measured here: UOK145 Z-AUC
[4] = TFE3-RCC viability, measured here: UOK124 cell viability
[5] = TFE3-RCC viability, measured here: UOK145 cell viability

Row | Structure (SMILES) | z-score [1] | z-score [2] | z-score [3] | AC50 [4] | AC50 [5]
1 | C[C@]12CCC(=O)C=C1CC[C@@H]1[C@H]2[C@@H](O)C[C@@]2(C)[C@H]1CC[C@]2(O)C(=O)CO | 1.31 | 0.516 | 0.567 |  | 
2 | N#CC(=Cc1ccc(O)c(O)c1)C(=O)NCc1ccccc1 | 0.413 | 0.512 | 0.527 |  | 
3 | CC(C)(C)[N+]([O-])=Cc1ccc(S(=O)(=O)O)cc1S(=O)(=O)O | 1.19 | 0.421 | 0.347 |  | 
4 | O=C(Nc1ccc(F)c(C(F)(F)F)c1)Nc1nnc(-c2ccncc2)s1 | 0.394 | 0.306 | 0.526 |  | 
5 | OCCn1cc(-c2ccc3c(c2)CCC3=NO)c(-c2ccncc2)n1 | 1.03 | 0.714 | -0.122 |  | 
6 | CC(C)(C)c1[nH]cnc1C=c1[nH]c(=O)c(=Cc2ccccc2)[nH]c1=O | -2.74 | -4.13 | -1.84 | 0.00959 µM [falling, full curve, poor fit] | 
7 | NC(=O)[C@@H](CCC(F)(F)F)N(Cc1ccc(-c2ncon2)cc1F)S(=O)(=O)c1ccc(Cl)cc1 | 0.378 | 0.478 | 0.275 |  | 20.9 µM [falling, partial curve, poor fit]
8 | Cc1ccnc2c1NC(=O)c1cccnc1N2C1CC1 | 0.182 | 0.168 | 0.354 |  | 33.2 µM [falling, single point]
9 | CC(C)CN(C[C@H](O)[C@H](Cc1ccccc1)NC(=O)O[C@H]1CCOC1)S(=O)(=O)c1ccc(N)cc1 | -0.163 | 0.0681 | 0.528 |  | 
10 | O=C(O)CCCCCC(=O)NN=C1CCCC1 | -0.306 | 0.711 | 0.219 |  | 
11 | CNC(=O)[C@H](Cc1ccccc1)NC(=O)[C@H](CC(C)C)[C@H](CSc1cccs1)C(=O)NO | -0.388 | 0.332 | 0.0202 |  | 
12 | CN(C(=O)c1ccc(F)cc1C(F)(F)F)C1CCN(c2nnc(-c3ccnn3C)c3ccccc23)CC1 | -0.739 | 0.234 | -0.248 |  | 
13 | OC[C@H]1O[C@@H](Oc2ccc(O)cc2)[C@H](O)[C@@H](O)[C@H]1O | 0.734 | 0.108 | 0.734 |  | 33.2 µM [falling, single point]
14 | O=C(Nc1nc2ccccc2n1CCN1CCOCC1)c1cccc([N+](=O)[O-])c1 | 0.882 | -2.47 | 0.745 | 18.7 µM [falling, partial curve, poor fit] | 
15 | C=CC1=C(C(=O)O)N2C(=O)[C@@H](NC(=O)C(=NO)c3csc(N)n3)[C@H]2SC1 | 1.29 | 0.643 | 0.406 |  | 

Given with tabs: entries from further up.
Row	Structure (SMILES)	z-score [1]	z-score [2]	z-score [3]	AC50 [4]	AC50 [5]
8	Cc1ccnc2c1NC(=O)c1cccnc1N2C1CC1	0.182	0.168	0.354		33.2 µM [falling, single point]
9	CC(C)CN(C[C@H](O)[C@H](Cc1ccccc1)NC(=O)O[C@H]1CCOC1)S(=O)(=O)c1ccc(N)cc1	-0.163	0.0681	0.528		
10	O=C(O)CCCCCC(=O)NN=C1CCCC1	-0.306	0.711	0.219		
